{"source": "PubChem BioAssay AID1259308 – NCATS, 2017", "purpose": "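Knock-downs that increase output of a recombinant reporter protein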 (primary screen)", "cell system": "human HEK293 embryonic kidney cells stably expressing firefly luciferase (HEK-CMV-Luc2-Hygro)", "reagents": "single siRNA against human genes, 0.8 pmol siRNA per well", "duration": "72 h", "measured": "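Reporter luminescence and viable-cell signal on separate replicate plates, given as percent of non-targeting control and median/MAD z-scores, plus per-cell luciferase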", "scale": "total luciferase, z-score: higher = more reporter protein produced", "rule for the call": "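Active when the median/MAD z-score for overall luciferase is greater than 3; a gene was taken forward for validation with new siRNAs if at least two of its three siRNAs passed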", "meaning of the calls": "active = raised luciferase; inactive = no rise", "note": "The deposit covers about 59,000 reagents; below is an unselected part. About 1,510 of all reagents (2.6%) count as active. 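Calls use total luciferase alone and ignore viability, so some active siRNAs may act by altering cell number.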 A number with no mark means an inactive call. Not all columns of the deposit are shown. Reagent sequences are not shown."}
{"gene": "DSG1 (desmoglein 1)", "PubChem SID": "SID160756661", "total luciferase, z-score": -0.618}
{"gene": "DSG1 (desmoglein 1)", "PubChem SID": "SID160756670", "total luciferase, z-score": 0.299}
{"gene": "DSG1 (desmoglein 1)", "PubChem SID": "SID160756680", "total luciferase, z-score": -0.686}
{"gene": "IGF2-AS (IGF2 antisense RNA)", "PubChem SID": "SID160740338", "total luciferase, z-score": -0.82}
{"gene": "IGF2-AS (IGF2 antisense RNA)", "PubChem SID": "SID160740339", "total luciferase, z-score": -0.00613}
{"gene": "IGF2-AS (IGF2 antisense RNA)", "PubChem SID": "SID160740340", "total luciferase, z-score": -0.248}
{"gene": "DLGAP5 (DLG associated protein 5)", "PubChem SID": "SID160723088", "total luciferase, z-score": 0.425}
{"gene": "DLGAP5 (DLG associated protein 5)", "PubChem SID": "SID160723089", "total luciferase, z-score": 0.16}
{"gene": "DLGAP5 (DLG associated protein 5)", "PubChem SID": "SID160723090", "total luciferase, z-score": -0.601}
{"gene": "RPS2P20 (ribosomal protein S2 pseudogene 20)", "PubChem SID": "SID160733908", "total luciferase, z-score": 0.372}
{"gene": "RPS2P20 (ribosomal protein S2 pseudogene 20)", "PubChem SID": "SID160733909", "total luciferase, z-score": 0.0843}
{"gene": "RPS2P20 (ribosomal protein S2 pseudogene 20)", "PubChem SID": "SID160769421", "total luciferase, z-score": 0.0441}
{"gene": "FKBP5 (FKBP prolyl isomerase 5)", "PubChem SID": "SID160765861", "total luciferase, z-score": -0.0351}
{"gene": "FKBP5 (FKBP prolyl isomerase 5)", "PubChem SID": "SID160765870", "total luciferase, z-score": 0.25}
{"gene": "FKBP5 (FKBP prolyl isomerase 5)", "PubChem SID": "SID160765881", "total luciferase, z-score": -2.06}
{"gene": "BAZ2A (bromodomain adjacent to zinc finger domain 2A)", "PubChem SID": "SID160730124", "total luciferase, z-score": -0.577}
{"gene": "BAZ2A (bromodomain adjacent to zinc finger domain 2A)", "PubChem SID": "SID160730125", "total luciferase, z-score": 2.72}
{"gene": "BAZ2A (bromodomain adjacent to zinc finger domain 2A)", "PubChem SID": "SID160730126", "total luciferase, z-score": 2.33}
{"gene": "SETD1A (SET domain containing 1A, histone lysine methyltransferase)", "PubChem SID": "SID160722954", "total luciferase, z-score": -0.554}
{"gene": "SETD1A (SET domain containing 1A, histone lysine methyltransferase)", "PubChem SID": "SID160722955", "total luciferase, z-score": 0.00827}
{"gene": "SETD1A (SET domain containing 1A, histone lysine methyltransferase)", "PubChem SID": "SID160722957", "total luciferase, z-score": -0.451}

Continued (3 carried over from the part before).
{"gene": "SETD1A (SET domain containing 1A, histone lysine methyltransferase)", "PubChem SID": "SID160722954", "total luciferase, z-score": -0.554}
{"gene": "SETD1A (SET domain containing 1A, histone lysine methyltransferase)", "PubChem SID": "SID160722955", "total luciferase, z-score": 0.00827}
{"gene": "SETD1A (SET domain containing 1A, histone lysine methyltransferase)", "PubChem SID": "SID160722957", "total luciferase, z-score": -0.451}
{"gene": "YOD1 (YOD1 deubiquitinase)", "PubChem SID": "SID160743680", "total luciferase, z-score": -0.514}
{"gene": "YOD1 (YOD1 deubiquitinase)", "PubChem SID": "SID160743681", "total luciferase, z-score": 0.442}
{"gene": "YOD1 (YOD1 deubiquitinase)", "PubChem SID": "SID160743682", "total luciferase, z-score": 1.79}
{"gene": "NPM1 (nucleophosmin 1)", "PubChem SID": "SID160778195", "total luciferase, z-score": -0.457}
{"gene": "NPM1 (nucleophosmin 1)", "PubChem SID": "SID160778196", "total luciferase, z-score": -0.101}
{"gene": "NPM1 (nucleophosmin 1)", "PubChem SID": "SID160778197", "total luciferase, z-score": -0.517}
{"gene": "F2R (coagulation factor II thrombin receptor)", "PubChem SID": "SID160762892", "total luciferase, z-score": -1.21}
{"gene": "F2R (coagulation factor II thrombin receptor)", "PubChem SID": "SID160762903", "total luciferase, z-score": -0.157}
{"gene": "F2R (coagulation factor II thrombin receptor)", "PubChem SID": "SID160762913", "total luciferase, z-score": -1.26}
{"gene": "CPEB1 (cytoplasmic polyadenylation element binding protein 1)", "PubChem SID": "SID160747807", "total luciferase, z-score": 2.17}
{"gene": "CPEB1 (cytoplasmic polyadenylation element binding protein 1)", "PubChem SID": "SID160747808", "total luciferase, z-score": -0.69}
{"gene": "CPEB1 (cytoplasmic polyadenylation element binding protein 1)", "PubChem SID": "SID160747809", "total luciferase, z-score": 0.333}
